Results: US6384085B1, “Material separated from Ecklonia cava, method for extracting and purifying the same, and use thereof as antioxidants” (Ventree Co., Ltd., priority 2000, dated 2002)
At least one structure is not confirmed: it was looked up by name or label, or the drawing left a doubt.

Experiment: Antioxidative activity: DPPH radical scavenging activity according to the Blois method
Type: biochemical
Details: 10 min reaction, absorbance at 517 nm
Method: The antioxidative activity of the novel compound obtained through the extraction and purification process is evaluated by measuring its radical scavenging activity against 1,1-diphenyl-2-picrylhydrazyl (DPPH), which has free radicals attached thereto, according to the Blois method. A thermal stability of the compound of interest can be evaluated by measuring its antioxidative activity at plural temperature points.
Dicaval C obtained in Example 3 was measured for antioxidative activity according to the Blois method. For this, an examination was made of the radical scavenging activity of the compound against 1,1-diphenyl-2-picrylhydrazyl (DPPH) to which free radicals were attached. First, 20 mg of DPPH was dissolved in 150 ml of ethanol to prepare a DPPH solution. To 600 μl of the DPPH solution was added 250 μl of dimethylsulfoxide (DMSO), diluted with an appropriate amount of ethanol and shaken for 10 seconds, after which this control was adjusted, in absorbance at 517 nm, from 0.94 to 0.97. To 1 ml of the DPPH solution which was adjusted from 0.94 to 0.97 likewise, each of the samples (μg to mg) was added and then, reacted for 10 min, followed by measuring the absorbance of the solution. The antioxidative activity of each of the samples was determined by the DPPH radical scavenging activity which was represented by a reduced absorbance compared with that of the control.

## Cc1cc(C(C)(C)C)c(O)c(C(C)(C)C)c1 [BHT, butylhydroxytoluene]
Sample amount 10 μg
  DPPH radical scavenging activity (antioxidative activity): 74%
Sample amount 20 μg
  DPPH radical scavenging activity (antioxidative activity): 87%
Sample amount 100 μg
  DPPH radical scavenging activity (antioxidative activity): 91%
